PubChem BioAssay AID743121 | NCATS | 2013

- Assay: 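Genes whose silencing strengthens cell killing by camptothecin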 (primary screen)
- Cells: MDA-MB-231 cells, a human breast cancer line
- Reagents: single siRNA against human genes, 20 nM siRNA (0.8 pmol per well)
- Duration: 120 h (drug added 48 h after transfection, read 72 h later)
- Conditions: camptothecin 20 nM (about EC30) for 72 h; vehicle 0.1% DMSO in parallel plates
- Read-out: 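CellTiter-Glo ATP signal, scaled to control siRNA as percent viability; sensitisation given as log2 of untreated divided by camptothecin-treated viability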
- Reading the numbers: log2 vehicle/camptothecin viability: higher = stronger sensitisation to camptothecin
- Hit rule: 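Each gene scored by redundant siRNA activity (RSA) over its individual siRNA ratios; a gene is called active at p < 0.001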
The deposit covers about 26,000 reagents; this is an unselected part. Of all reagents, 167 (0.63%) were called active. 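Calls are per gene from RSA p-values that are not deposited; an individual active-marked siRNA can sensitise only weakly.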 Unmarked entries are inactive. Reagents against one gene are numbered here. Further read-outs or replicates are left out here.

log2 vehicle/camptothecin viability | gene | reagent no.
-0.745 | IFNAR1 (interferon alpha and beta receptor subunit 1) | 1
-0.0842 | IFNAR1 (interferon alpha and beta receptor subunit 1) | 2
-0.175 | IFNAR1 (interferon alpha and beta receptor subunit 1) | 3
0.419 | IFNAR1 (interferon alpha and beta receptor subunit 1) | 4
-0.155 | AADAC (arylacetamide deacetylase) | 1
-0.194 | AADAC (arylacetamide deacetylase) | 2
-0.216 | AADAC (arylacetamide deacetylase) | 3
-0.0163 | FKBP1B (FKBP prolyl isomerase 1B) | 1
0.954 | FKBP1B (FKBP prolyl isomerase 1B) | 2
-0.143 | FKBP1B (FKBP prolyl isomerase 1B) | 3
-0.0246 | USP7 (ubiquitin specific peptidase 7) | 1
-0.11 | USP7 (ubiquitin specific peptidase 7) | 2
0.264 | USP7 (ubiquitin specific peptidase 7) | 3
-0.144 | USP7 (ubiquitin specific peptidase 7) | 4
-0.018 | RAB10 (RAB10, member RAS oncogene family) | 1
0.0459 | RAB10 (RAB10, member RAS oncogene family) | 2
-0.406 | RAB10 (RAB10, member RAS oncogene family) | 3
-0.131 | RAB10 (RAB10, member RAS oncogene family) | 4
1 (active) | USP5 (ubiquitin specific peptidase 5) | 1
1.5 (active) | USP5 (ubiquitin specific peptidase 5) | 2
0.0118 (active) | USP5 (ubiquitin specific peptidase 5) | 3
0.418 (active) | USP5 (ubiquitin specific peptidase 5) | 4
0.166 | CDCP2 (CUB domain containing protein 2) | 1
0.198 | CDCP2 (CUB domain containing protein 2) | 2
-0.0723 | CDCP2 (CUB domain containing protein 2) | 3
0.311 | MYL7 (myosin light chain 7) | 1
-0.695 | MYL7 (myosin light chain 7) | 2
-0.0354 | MYL7 (myosin light chain 7) | 3
-0.17 | MYL7 (myosin light chain 7) | 4
-0.661 | PITPNM1 (phosphatidylinositol transfer protein membrane associated 1) | 1
-0.0637 | PITPNM1 (phosphatidylinositol transfer protein membrane associated 1) | 2
-0.274 | PITPNM1 (phosphatidylinositol transfer protein membrane associated 1) | 3
-0.294 | PITPNM1 (phosphatidylinositol transfer protein membrane associated 1) | 4
-0.65 | AMPD2 (adenosine monophosphate deaminase 2) | 1
-0.496 | AMPD2 (adenosine monophosphate deaminase 2) | 2
0.783 | AMPD2 (adenosine monophosphate deaminase 2) | 3
0.143 | AMPD2 (adenosine monophosphate deaminase 2) | 4
-0.242 | HIPK1 (homeodomain interacting protein kinase 1) | 1
-0.0547 | HIPK1 (homeodomain interacting protein kinase 1) | 2
-0.495 | HIPK1 (homeodomain interacting protein kinase 1) | 3
-0.226 | HIPK1 (homeodomain interacting protein kinase 1) | 4
0.128 | CDC73 (cell division cycle 73) | 1
-0.0409 | CDC73 (cell division cycle 73) | 2
0.45 | CDC73 (cell division cycle 73) | 3
0.0702 | CDC73 (cell division cycle 73) | 4
1.24 | INF2 (inverted formin 2) | 1
-0.366 | INF2 (inverted formin 2) | 2
-0.58 | INF2 (inverted formin 2) | 3
-0.341 | INF2 (inverted formin 2) | 4
0.719 | INF2 (inverted formin 2) | 5
-0.209 | INF2 (inverted formin 2) | 6
0.0165 | INF2 (inverted formin 2) | 7
-0.202 | INF2 (inverted formin 2) | 8
-0.255 | GPR65 (G protein-coupled receptor 65) | 1
-0.226 | GPR65 (G protein-coupled receptor 65) | 2
0.269 | GPR65 (G protein-coupled receptor 65) | 3
-0.698 | GPR65 (G protein-coupled receptor 65) | 4

Already shown: an excerpt of the list.
log2 vehicle/camptothecin viability | gene | reagent no.
-0.216 | AADAC (arylacetamide deacetylase) | 3
-0.0163 | FKBP1B (FKBP prolyl isomerase 1B) | 1
0.954 | FKBP1B (FKBP prolyl isomerase 1B) | 2
-0.143 | FKBP1B (FKBP prolyl isomerase 1B) | 3
-0.0246 | USP7 (ubiquitin specific peptidase 7) | 1

The list goes on:
log2 vehicle/camptothecin viability | gene | reagent no.
-0.126 | MYLK3 (myosin light chain kinase 3) | 1
-0.468 | MYLK3 (myosin light chain kinase 3) | 2
0.0796 | MYLK3 (myosin light chain kinase 3) | 3
-0.0595 | MYLK3 (myosin light chain kinase 3) | 4
-0.703 | GPR22 (G protein-coupled receptor 22) | 1
-0.0988 | GPR22 (G protein-coupled receptor 22) | 2
0.185 | GPR22 (G protein-coupled receptor 22) | 3
-0.0532 | GPR22 (G protein-coupled receptor 22) | 4
0.174 | TIMP2 (TIMP metallopeptidase inhibitor 2) | 1
0.0345 | TIMP2 (TIMP metallopeptidase inhibitor 2) | 2
-0.122 | TIMP2 (TIMP metallopeptidase inhibitor 2) | 3
-0.477 | TIMP2 (TIMP metallopeptidase inhibitor 2) | 4
0.21 | NEUROG1 (neurogenin 1) | 1
-0.513 | NEUROG1 (neurogenin 1) | 2
0.06 | NEUROG1 (neurogenin 1) | 3
0.724 | NEUROG1 (neurogenin 1) | 4
0.00555 | DTNBP1 (dystrobrevin binding protein 1) | 1
-0.562 | DTNBP1 (dystrobrevin binding protein 1) | 2
-0.443 | DTNBP1 (dystrobrevin binding protein 1) | 3
-0.0892 | DTNBP1 (dystrobrevin binding protein 1) | 4
0.0503 | GNAO1 (G protein subunit alpha o1) | 1
-0.0573 | GNAO1 (G protein subunit alpha o1) | 2
-0.302 | AMN (amnion associated transmembrane protein) | 1
-0.177 | AMN (amnion associated transmembrane protein) | 2
-0.517 | AMN (amnion associated transmembrane protein) | 3
1.19 (active) | ZAP70 (zeta chain of T cell receptor associated protein kinase 70) | 1
0.124 (active) | ZAP70 (zeta chain of T cell receptor associated protein kinase 70) | 2
0.337 (active) | ZAP70 (zeta chain of T cell receptor associated protein kinase 70) | 3
0.797 (active) | ZAP70 (zeta chain of T cell receptor associated protein kinase 70) | 4
-0.409 | DUSP11 (dual specificity phosphatase 11) | 1
1.21 | DUSP11 (dual specificity phosphatase 11) | 2
-0.117 | DUSP11 (dual specificity phosphatase 11) | 3
-0.28 | DUSP11 (dual specificity phosphatase 11) | 4
